# Reference: the supplement of paper PMC3334620
# Whole data set: some 33,000 sequences, median “E-score (-0.5 to 0.5)” near -0.0014, cut for the highest 2% near 0.25. The list shows a part of the results.
# Molecular target: T1, Cad1 (UniProt P24813)
# T1 sequence: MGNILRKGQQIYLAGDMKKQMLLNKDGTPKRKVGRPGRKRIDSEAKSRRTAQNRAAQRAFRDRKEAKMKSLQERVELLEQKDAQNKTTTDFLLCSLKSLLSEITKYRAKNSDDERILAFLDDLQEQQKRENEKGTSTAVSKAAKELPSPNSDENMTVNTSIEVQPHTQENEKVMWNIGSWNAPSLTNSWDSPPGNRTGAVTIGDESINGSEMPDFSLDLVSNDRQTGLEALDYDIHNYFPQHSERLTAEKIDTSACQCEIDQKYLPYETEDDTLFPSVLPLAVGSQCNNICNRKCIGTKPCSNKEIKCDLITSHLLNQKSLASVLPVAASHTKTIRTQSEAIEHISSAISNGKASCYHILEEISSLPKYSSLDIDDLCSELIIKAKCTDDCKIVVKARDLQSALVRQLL
# Test: PBM E-score (8-mer binding enrichment) (E-score (-0.5 to 0.5)); higher = stronger / more preferred TF binding
# Conditions: protein concentration: 100 nM; construct: GST-full length
# How it was run: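 Yeast transcription factors carrying a GST tag, as full-length proteins or DNA-binding domains, were produced by PURExpress in vitro transcription/translation. About 100-200 nM protein was applied to universal all-10-mer Agilent arrays, double-stranded by primer extension on fresh or once-stripped slides. Bound protein was detected with fluorescent anti-GST, and scans were normalised with masliner. The Universal PBM Analysis Suite gave each ungapped eight-base word, pooled with its reverse complement, an E-score, a modified Wilcoxon-Mann-Whitney statistic.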
row,Sequence,PBM E-score
1,GTCCCCGA,-0.113
2,ATCCTGAA,0.109
3,AGACATCG,-0.013
4,CGATTACA,0.197
5,ATGCCAAA,-0.146
6,CGGTAAAC,-0.11
7,AAGGTGGA,-0.0565
8,AATGGCGC,0.0139
9,CGCTTTGA,0.0116
10,AGGGGACC,-0.236
11,ATAATAAA,0.243
12,TACCATCA,-0.13
13,GGGTAAGA,-0.186
14,AACTCGCG,0.187
15,CTAATACC,0.0652
16,GCCTACTA,0.102
17,ATTAGTTG,0.216
18,ACTAGTCC,0.0411
19,ACGCTTAA,0.0746
20,ACACCAGC,-0.0756
21,GCGCAAGC,0.104
22,ACTCGGTC,-0.0667
23,TAGACTCA,-0.0267
24,CACTAAGA,0.0589
25,CGGGCCAA,-0.278

row,Sequence,PBM E-score
1,ATCCTGTC,0.0469
2,ATAGCTCA,-0.0999
3,AACATAGT,0.0142
4,GCATAAAC,-0.00386
5,CTAAGTAC,0.0659
6,CACATCAC,0.0723
7,AAGAGGAC,-0.0291
8,AGCTGATA,0.109
9,AAAAAGAC,0.0788
10,TCAGACGA,0.0605
11,CACCTTTC,-0.0798
12,TCACCCGA,0.0127
13,AGAGCAAT,-0.241
14,AAGAGCGG,0.0693
15,ATGGTCCC,-0.189
16,CGGTACTC,-0.123
17,GACATTGC,-0.069
18,ATATTTAA,0.272
19,CTGGGTGA,-0.0833
20,GCAACGCA,-0.18
21,ATCGTAAA,0.06
22,GGCGTGTA,0.0333
23,ACTTTTTA,0.0697
24,AAGATAAC,-0.0304
25,TGCCCTAA,-0.0822

row,Sequence,PBM E-score
1,CGGTGTCC,-0.00433
2,ACGTAGCT,-0.023
3,GCAGCGCC,-0.0428
4,ACTGCTCG,0.142
5,CTATTTAA,-0.0377
6,TAGGAATA,0.0519
7,ACATAGCA,0.00454
8,AGTTAAGG,0.0907
9,ATCGCGGG,0.0565
10,AGTCTGAG,-0.221
11,CCAGTACG,-0.0457
12,GCAGAAGA,-0.13
13,AGACATAA,0.0308
14,CTACGTGC,-0.164
15,ATTTTATG,0.255
16,GTCTTTAA,-0.0677
17,CCGTATAG,-0.0284
18,GGTTGTAA,0.0451
19,CCGAATGC,0.0712
20,TCCTAGCA,-0.134
21,TTCAAGAA,0.204
22,CGGGCCGA,-0.0993
23,CTGCCAAG,-0.119
24,AGAAAAAG,-0.00974
25,CCTTCCCG,-0.167

row,Sequence,PBM E-score
1,GAAGGCCC,-0.127
2,GCGGGGAA,0.0456
3,AGGGAAGC,-0.222
4,TCGAGAAA,0.117
5,AGTCAGGA,0.141
6,CGTCAAGC,-0.0629
7,GTCCGTGA,0.0336
8,CGGGGGCC,-0.42
9,CACTCTGC,0.0146
10,AGACTGAT,-0.0163
11,GGTCGGTA,-0.127
12,GTGGACCA,0.0224
13,AATGTTCA,0.0735
14,CAAGAAGG,-0.144
15,CTAACCAC,0.0245
16,ACTGCTTC,-0.115
17,GATTGCCC,-0.0727
18,CGTTTGTC,0.0828
19,GATGCACC,0.0119
20,AGGACTAG,-0.039
21,AGTCCATC,-0.0953
22,GTCGCTTA,0.22
23,GTGCCCTA,-0.282
24,AATCCCAG,0.0625
25,CTAGCGAC,0.0304

row,Sequence,PBM E-score
1,TATCGGAA,0.143
2,AACATGAC,0.1
3,ACCTGGCT,-0.201
4,CGTCGCGA,0.111
5,GCAGTATA,-0.0191
6,GAGTACGA,0.0492
7,GCCATGGA,-0.0388
8,TCGGCTCA,-0.00735
9,TCCGTGCA,0.126
10,GTGATGGA,-0.0232
11,AGTACTGG,-0.0662
12,ACATCGTA,-0.0947
13,ATTAAAGA,0.175
14,TCGTTCCA,-0.157
15,ATGTTTGC,-0.0905
16,ACATACGA,0.117
17,CGTTCCAC,-0.109
18,ACACAGCG,0.251
19,AGGCCTGG,-0.135
20,TAGTCCAA,-0.103
21,GAGTAGCA,0.121
22,CAAGCCAA,-0.0331
23,CTTAATTA,0.152
24,CAGACTAC,-0.0227
25,CAACCTTA,-0.0594

row,Sequence,PBM E-score
1,ATAGACTC,-0.177
2,ATACAACG,0.128
3,ATCATTTC,0.136
4,AACACCAA,0.122
5,AGTACAAG,-0.092
6,AAAGGCAC,-0.0104
7,CGCGTCGA,0.123
8,ACAGCACG,-0.0152
9,ACCGAGCG,-0.0942
10,CTAAAACC,0.0774
11,CGGCCTAG,-0.263
12,ACGTACGT,-0.0167
13,ACTACTCA,0.146
14,CTGTACCC,-0.0355
15,GGTAAAGA,0.143
16,AATGAGTA,0.214
17,ATAGCCAA,0.167
18,GCGGTGCA,-0.201
19,ATTAAATG,0.23
20,AATTTTAA,0.249
21,GGTTCGCA,-0.035
22,CTGGCTTA,-0.104
23,CGTCTGAA,0.0655
24,CTATTAGC,0.176
25,ACGATTTG,0.105

# Taken from above:
# In PBM E-score, CTTAATTA has the entry 0.152
# In PBM E-score, GCCTACTA has the entry 0.102
# In PBM E-score, ATAGCTCA has the entry -0.0999
# In PBM E-score, ATAGACTC has the entry -0.177

# Continuation.

row,Sequence,PBM E-score
1,AAATGCCC,-0.228
2,ACCTTCCG,0.033
3,AACTGGGT,-0.0949
4,CAGGAATA,-0.0481
5,GGTCCGTA,-0.0697
6,CATTTTCA,0.101
7,ACACTCCC,-0.237
8,CGGACCTA,0.162
9,GGAATAAA,0.0586
10,GGGTCCAA,-0.165
11,ATCATAAA,0.0876
12,TAAGTACA,0.0719
13,CCAAGTTA,0.033
14,TTCCGAAA,0.0116
15,ATTTAATC,0.285
16,AATGGCCT,0.0563
17,GGATGGAA,-0.0674
18,ACATCCGG,0.0635
19,GCTTGGGA,-0.244
20,CGGACGCC,-0.0696
21,ATCAGCAG,0.191
22,ACAGCGTC,0.0403

# 2 successive records already listed:
row,Sequence,PBM E-score
8,CGGACCTA,0.162
9,GGAATAAA,0.0586
